Data taken from PMC9637080.
No constants are given. Whether binding was seen depends on the method and setting. In cells and extracts the contact can be indirect. Some entries that bind do so weakly or less than the wild type.

By UniProt entry, the sequences of proteins in these tests, tags left out.
UniProt Q13464: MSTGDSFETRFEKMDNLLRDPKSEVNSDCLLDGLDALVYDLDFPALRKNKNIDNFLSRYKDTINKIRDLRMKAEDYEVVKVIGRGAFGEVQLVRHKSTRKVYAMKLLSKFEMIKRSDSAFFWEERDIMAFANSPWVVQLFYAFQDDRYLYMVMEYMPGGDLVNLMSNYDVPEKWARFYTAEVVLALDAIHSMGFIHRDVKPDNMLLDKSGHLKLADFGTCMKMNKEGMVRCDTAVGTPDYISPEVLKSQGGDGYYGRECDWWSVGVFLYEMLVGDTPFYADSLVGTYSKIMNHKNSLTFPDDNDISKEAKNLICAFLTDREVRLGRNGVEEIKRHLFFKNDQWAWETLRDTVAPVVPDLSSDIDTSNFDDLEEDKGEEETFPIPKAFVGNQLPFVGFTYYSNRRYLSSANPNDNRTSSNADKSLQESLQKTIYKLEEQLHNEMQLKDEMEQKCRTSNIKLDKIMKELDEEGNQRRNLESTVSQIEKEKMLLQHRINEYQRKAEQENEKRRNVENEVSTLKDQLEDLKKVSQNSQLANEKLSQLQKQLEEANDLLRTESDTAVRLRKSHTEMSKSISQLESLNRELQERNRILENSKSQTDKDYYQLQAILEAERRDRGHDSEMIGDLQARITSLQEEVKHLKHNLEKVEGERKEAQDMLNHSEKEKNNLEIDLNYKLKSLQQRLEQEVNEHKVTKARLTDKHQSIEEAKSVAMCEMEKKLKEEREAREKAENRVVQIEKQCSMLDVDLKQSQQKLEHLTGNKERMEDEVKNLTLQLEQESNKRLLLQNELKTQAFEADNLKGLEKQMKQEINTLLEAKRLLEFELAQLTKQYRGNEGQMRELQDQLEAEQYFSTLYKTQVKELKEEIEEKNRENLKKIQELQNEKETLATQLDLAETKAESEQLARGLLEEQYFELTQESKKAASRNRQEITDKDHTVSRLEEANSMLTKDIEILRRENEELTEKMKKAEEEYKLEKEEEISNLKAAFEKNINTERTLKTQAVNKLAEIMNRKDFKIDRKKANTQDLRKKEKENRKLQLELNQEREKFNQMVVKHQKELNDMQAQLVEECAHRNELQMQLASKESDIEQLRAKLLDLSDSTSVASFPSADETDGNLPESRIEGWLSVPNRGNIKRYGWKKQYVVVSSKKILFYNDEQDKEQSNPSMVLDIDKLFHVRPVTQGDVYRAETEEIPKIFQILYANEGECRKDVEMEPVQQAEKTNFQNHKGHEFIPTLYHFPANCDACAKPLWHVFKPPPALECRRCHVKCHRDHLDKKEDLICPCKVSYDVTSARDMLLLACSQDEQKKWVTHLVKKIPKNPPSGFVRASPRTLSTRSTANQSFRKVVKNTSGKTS

Target: Rho-associated kinase 1 (ROCK1) (human (endogenous in LSCC cells)) (UniProt Q13464)
Experiment: co-IP; immobilized affinity-purified antibodies (10-75 ug; anti-ROCK1, anti-PYROXD1), immobilized anti-IgG as control; LSCC cell lysate incubated for 1 day at 4 °C; Western blotting

- binding: binds
B1: pyridine nucleotide-disulfide oxidoreductase domain 1 (PYROXD1) (enzyme, UniProt Q8WU10 1-500)
chain: MEAARPPPTAGKFVVVGGGIAGVTCAEQLATHFPSEDILLVTASPVIKAVTNFKQISKILEEFDVEEQSSTMLGKRFPNIKVIESGVKQLKSEEHCIVTEDGNQHVYKKLCLCAGAKPKLICEGNPYVLGIRDTDSAQEFQKQLTKAKRIMIIGNGGIALELVYEIEGCEVIWAIKDKAIGNTFFDAGAAEFLTSKLIAEKSEAKIAHKRTRYTTEGRKKEARSKSKADNVGSALGPDWHEGLNLKGTKEFSHKIHLETMCEVKKIYLQDEFRILKKKSFTFPRDHKSVTADTEMWPVYVELTNEKIYGCDFIVSATGVTPNVEPFLHGNSFDLGEDGGLKVDDHMHTSLPDIYAAGDICTTSWQLSPVWQQMRLWTQARQMGWYAAKCMAAASSGDSIDMDFSFELFAHVTKFFNYKVVLLGKYNAQGLGSDHELMLRCTKGREYIKVVMQNGRMMGAVLIGETDLEETFENLILNQMNLSSYGEDLLDPNIDIEDYFD
